{"source": "PubChem BioAssay AID624297", "about": "(National Center for Advancing Translational Sciences (NCATS), 2012)", "note": "In all, about 340,000 compounds went through this assay and about 6,200 (1.8%) were called active. The shares of active, inactive and inconclusive entries below differ from those in the screen. The call rests on the fitted dose curve; in most records, active means well fitted activation curve with a large enough effect; inconclusive means small, poorly fitted or top-dose-only effect; inactive means no such curve, though single readings can be large or run the other way. Potencies beside an inconclusive call are fits to weak or partial responses and may not hold up. Potency means the concentration at half of the fitted maximal effect."}
{"assay": "A quantitative high throughput screen for small molecules that induce DNA re-replication in SW480 colon adenocarcinoma cells; further: nearly all actives have a fitted effect of over 55% in size; on re-replication activation: % of control where 0% means no effect.", "details": "Hoechst DNA content imaging, 48 h; re-replication activation: at 46.1 µM (top of the series) unless noted", "how_it_was_run": "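Per well, 250 cells were exposed to pinned compound for 48 hr. Nuclear DNA was visualised with Hoechst (40 min, 37 C) and total object intensity recorded by fluorescence scanning.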"}
{"smiles": "O=C(NC(=S)Nc1ccc(Cl)cn1)C12CC3CC(CC(C3)C1)C2", "Potency": "inactive"}
{"smiles": "CCN1CCN(CCCOc2ccccc2-c2ccccc2)CC1", "Potency": "inactive"}
{"smiles": "Cc1nonc1CC(=O)N1CCCC(C(=O)c2ccc(Cl)cc2)C1", "note": "(stereo not drawn)", "Potency": "inconclusive: 0.411 µM [activator, full curve, poor fit]"}
{"smiles": "O=C1c2ccccc2NC(c2ccc(-c3ccc(Br)cc3)o2)N1O", "note": "(stereo not drawn)", "Potency": "inconclusive: 29.1 µM [activator, single point]"}
{"smiles": "CCOc1ccc(C(C)=O)cc1COC(=O)c1ccccc1C(=O)N(C)Cc1ccccc1", "Potency": "inconclusive: 29.1 µM [activator, partial curve, poor fit]"}
{"smiles": "Cn1c(CCN2CCN(c3ccccn3)CC2)nc2cc(NS(=O)(=O)c3ccccc3)ccc21", "Potency": "inconclusive: 29.1 µM [activator, single point]"}
{"smiles": "CC(C)(CN1CCN(C(c2ccccc2)c2ccccc2)CC1)NS(=O)(=O)c1ccccc1", "Potency": "inconclusive: 29.1 µM [activator, single point]"}
{"smiles": "O=C(NCc1ccccc1)C(c1ccco1)N(C(=O)c1csnn1)c1ccccc1", "note": "(stereo not drawn)", "Potency": "inactive"}
{"smiles": "COc1ccc(NC(=O)Nc2nnc(Cc3ccc(OC)c(OC)c3)s2)cc1", "Potency": "inconclusive: 29.1 µM [activator, single point]"}
{"smiles": "COc1cccc(CNC(=O)CCCn2nc(C)n3c(cc4sccc43)c2=O)c1", "Potency": "inactive"}
{"smiles": "O=C(NC12CC3CC(CC(C3)C1)C2)N1CC2Cc3cccc(=O)n3C(C2)C1", "note": "(stereo not drawn)", "re-replication activation": "inactive: -5.37% [at 9.22 µM]"}
{"smiles": "CN(C)S(=O)(=O)c1ccc2c(c1)C(=NO)c1cc(S(=O)(=O)N(C)C)ccc1-2", "Potency": "inconclusive: 23.1 µM [activator, single point]"}
{"smiles": "CN([C@@H](Cc1ccc(OS(=O)(=O)c2cccc3cnccc23)cc1)C(=O)N1CCN(c2ccccc2)CC1)S(=O)(=O)c1cccc2cnccc12", "Potency": "inconclusive: 0.517 µM [activator, single point]"}
{"smiles": "CC(=O)Nc1ccc(S(=O)(=O)Nc2nc3ccc(C)cc3s2)cc1", "Potency": "inactive"}
{"smiles": "O=C(NCCCN1CCCC1)c1ccc2c(Cl)c3c(nc2c1)CCCC3", "Potency": "inactive"}
{"smiles": "CCCCC(NC(=O)COc1cc2c(c3oc(=O)cc(C)c13)CCC(C)(C)O2)C(=O)O", "note": "(stereo not drawn)", "Potency": "inconclusive: 0.1 µM [activator, full curve, poor fit]"}
{"smiles": "O=C1CC(c2ccco2)CC2=C1C1c3ccccc3C(=O)N1c1ccccc1N2", "note": "(stereo not drawn)", "Potency": "inconclusive: 20.6 µM [activator, single point]"}
{"smiles": "C/C(=N\\NC(=O)C(N)=O)c1cccc(C(F)(F)F)c1", "Potency": "inconclusive: 0.58 µM [activator, partial curve, poor fit]"}
{"smiles": "Cc1cc(C)c(C)c(S(=O)(=O)N(C)C2CCN(C)CC2)c1C", "Potency": "inconclusive: 16.4 µM [activator, single point]"}
{"smiles": "COc1ccccc1NS(=O)(=O)c1cc([N+](=O)[O-])ccc1N/N=C/c1c[nH]c2ccccc12", "Potency": "inconclusive: 18.4 µM [activator, single point]"}
{"smiles": "C[C@@H]1C(c2ccc(F)cc2)=NN(c2ccc(Br)cc2)[C@H]1C(=O)N1CCOC1=O", "Potency": "inconclusive: 29.1 µM [activator, single point]"}
{"smiles": "N#C/C(=C\\c1ccncc1)c1nc2ccccc2[nH]1", "Potency": "inactive"}
{"smiles": "Cc1ccccc1S(=O)(=O)Cc1ccc(C(=O)NCCCN2CCN(C)CC2)o1", "Potency": "inactive"}
{"smiles": "COc1ccc([C@H]2CC(=O)C=C(c3cc4ccccc4c4ccccc34)C2)cc1", "Potency": "inconclusive: 23.1 µM [activator, single point]"}
{"smiles": "O=C(CSc1nc2ccsc2c(=O)n1CC1CCC(C(=O)O)CC1)NCCc1ccc(Cl)cc1", "note": "(stereo not drawn)", "Potency": "inactive"}
{"smiles": "COc1ccccc1NC(=O)Cn1nc(-c2ccncc2)nc1SCC(=O)NC1CCCC1", "Potency": "inconclusive: 20.6 µM [activator, single point]"}
{"smiles": "CCC1=CC(c2ccccc2)n2ncnc2N1", "note": "(stereo not drawn)", "Potency": "inconclusive: 29.1 µM [activator, single point]"}
{"smiles": "CCCCSC1=N/C(=C/c2ccsc2)C(=O)N1c1ccccc1", "Potency": "inactive"}
{"smiles": "CC[C@]1(C(=O)OC)[C@H]2C(=O)N(Cc3ccccc3)C(=O)[C@H]2[C@H]2CN=C(SCC(=O)c3ccccc3)N21", "Potency": "inconclusive: 0.231 µM [activator, full curve, poor fit]"}
{"smiles": "Cc1c(C(=O)Nc2ccc(F)cc2)oc2ccc(S(=O)(=O)N3CCC4(CC3)OCCO4)cc12", "Potency": "inactive"}
{"smiles": "CN(Cc1ccccc1)C(=O)COC(=O)CCC(=O)c1ccc(Cl)cc1", "Potency": "inactive"}
{"smiles": "NC(=O)c1ccccc1NC(=O)c1ccc2ccccc2c1", "Potency": "inconclusive: 29.1 µM [activator, single point]"}
{"smiles": "CCN1CCN(c2cc(C(C)(C)C)nc3c(-c4ccccc4)c(C)nn23)CC1", "Potency": "active: 6.51 µM"}
{"smiles": "COc1ccc(-c2cc(N)n(S(=O)(=O)c3ccc(F)cc3)n2)cc1OC", "Potency": "inactive"}
{"smiles": "O=[N+]([O-])c1ccc2nc(NN=Cc3ccc(O)cc3)sc2c1", "Potency": "active: 20.6 µM"}
{"smiles": "CSc1ccc(/C=N\\NC(=O)COc2ccc(Cl)cc2Br)cc1", "Potency": "inconclusive: 29.1 µM [activator, single point]"}
{"smiles": "Cc1cc(N2CCN(C)CC2)ccc1NC(=O)c1c2c(nc3ccccc13)CCN(Cc1ccccc1)C2", "Potency": "inconclusive: 4.61 µM [activator, full curve, poor fit]"}
{"smiles": "CCc1nnc(NC(=O)CSc2nccn2-c2cccc(C)c2C)s1", "Potency": "inconclusive: 29.1 µM [activator, single point]"}
{"smiles": "CCCCCCN(C(=O)CCl)c1ccccc1", "Potency": "active: 9.2 µM"}
{"smiles": "CC(=NNC(=S)N1CCN(c2ccccn2)CC1)c1ccccn1", "Potency": "inconclusive: 18.4 µM [activator, single point]"}
{"smiles": "Cc1ccc(NC(=O)COC(=O)Cn2cnc3c2c(=O)n(C)c(=O)n3C)c(Cl)c1", "Potency": "inconclusive: 29.1 µM [activator, single point]"}
{"smiles": "COc1ccc(CN(C)CCCn2cnc(C(=O)Nc3ccc(C)c(C)c3)n2)cc1OC", "Potency": "inconclusive: 29.1 µM [activator, single point]"}
{"smiles": "COC(=O)/C(=C\\c1ccc([N+](=O)[O-])o1)NC(=O)c1ccccc1", "Potency": "inconclusive: 35.5 µM [activator, single point]"}
